{"source": "patent US20130303575A1", "about": "“ADMINISTRATION OF AN INHIBITOR OF HDAC” (priority 2007, published 2013)", "experiment": "PK of SNDX-275 in patients with metastatic melanoma (Example 4)", "assay_type": "in vivo, human", "conditions": "7 mg dose, day 1 of cycle 1", "protocol": "The concentration after 8 hours after the dose was approximately 2 ng/mL.", "note": "The name of at least one read-out is uncertain.", "data": [{"smiles": "Nc1ccccc1NC(=O)c1ccc(CNC(=O)OCc2cccnc2)cc1", "note": "[SNDX-275, N-(2-aminophenyl) 4-[N-(pyrid-3-yl)methyloxycarbonylaminomethyl]benzamide]", "values": [{"measurement": "time of Cmax", "value": "around 0.5 hours"}]}]}
